Results are given in words; binding and its absence hold for the method and conditions named. Binding seen in cells or lysates may run through a third protein. These calls come from enrichment with a bait or labelling near it, and not all partners need be listed.

The chains behind the UniProt entries cited, without tags or fusion partners.
UniProt Q91ZW3: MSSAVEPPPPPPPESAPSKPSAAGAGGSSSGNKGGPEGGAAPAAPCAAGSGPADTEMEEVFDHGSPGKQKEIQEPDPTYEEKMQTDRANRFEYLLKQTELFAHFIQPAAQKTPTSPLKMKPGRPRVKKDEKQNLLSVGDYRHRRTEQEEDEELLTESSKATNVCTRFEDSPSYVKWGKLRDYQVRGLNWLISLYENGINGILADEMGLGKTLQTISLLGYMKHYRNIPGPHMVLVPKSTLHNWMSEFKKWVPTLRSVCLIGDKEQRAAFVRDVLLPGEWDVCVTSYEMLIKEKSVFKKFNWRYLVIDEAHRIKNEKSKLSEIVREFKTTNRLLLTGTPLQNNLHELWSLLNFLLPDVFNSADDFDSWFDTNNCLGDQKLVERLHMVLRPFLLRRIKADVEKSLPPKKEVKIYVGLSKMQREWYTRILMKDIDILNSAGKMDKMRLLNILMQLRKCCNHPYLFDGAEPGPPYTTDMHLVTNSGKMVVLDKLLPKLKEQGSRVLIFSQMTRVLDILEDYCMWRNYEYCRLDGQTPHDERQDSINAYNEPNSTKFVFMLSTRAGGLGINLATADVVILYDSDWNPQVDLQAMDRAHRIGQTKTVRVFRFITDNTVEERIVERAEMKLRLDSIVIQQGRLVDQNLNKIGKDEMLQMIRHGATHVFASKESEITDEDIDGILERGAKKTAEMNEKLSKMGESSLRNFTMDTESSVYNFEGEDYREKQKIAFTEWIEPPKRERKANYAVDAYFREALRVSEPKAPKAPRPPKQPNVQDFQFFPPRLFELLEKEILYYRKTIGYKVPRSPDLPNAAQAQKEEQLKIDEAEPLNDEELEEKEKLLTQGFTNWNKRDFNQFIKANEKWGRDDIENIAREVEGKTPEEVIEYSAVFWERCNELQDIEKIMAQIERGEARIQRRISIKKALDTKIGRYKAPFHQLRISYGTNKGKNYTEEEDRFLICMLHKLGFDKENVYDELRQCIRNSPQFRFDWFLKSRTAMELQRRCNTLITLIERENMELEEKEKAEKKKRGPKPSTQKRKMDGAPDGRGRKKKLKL
UniProt E9Q2Z1: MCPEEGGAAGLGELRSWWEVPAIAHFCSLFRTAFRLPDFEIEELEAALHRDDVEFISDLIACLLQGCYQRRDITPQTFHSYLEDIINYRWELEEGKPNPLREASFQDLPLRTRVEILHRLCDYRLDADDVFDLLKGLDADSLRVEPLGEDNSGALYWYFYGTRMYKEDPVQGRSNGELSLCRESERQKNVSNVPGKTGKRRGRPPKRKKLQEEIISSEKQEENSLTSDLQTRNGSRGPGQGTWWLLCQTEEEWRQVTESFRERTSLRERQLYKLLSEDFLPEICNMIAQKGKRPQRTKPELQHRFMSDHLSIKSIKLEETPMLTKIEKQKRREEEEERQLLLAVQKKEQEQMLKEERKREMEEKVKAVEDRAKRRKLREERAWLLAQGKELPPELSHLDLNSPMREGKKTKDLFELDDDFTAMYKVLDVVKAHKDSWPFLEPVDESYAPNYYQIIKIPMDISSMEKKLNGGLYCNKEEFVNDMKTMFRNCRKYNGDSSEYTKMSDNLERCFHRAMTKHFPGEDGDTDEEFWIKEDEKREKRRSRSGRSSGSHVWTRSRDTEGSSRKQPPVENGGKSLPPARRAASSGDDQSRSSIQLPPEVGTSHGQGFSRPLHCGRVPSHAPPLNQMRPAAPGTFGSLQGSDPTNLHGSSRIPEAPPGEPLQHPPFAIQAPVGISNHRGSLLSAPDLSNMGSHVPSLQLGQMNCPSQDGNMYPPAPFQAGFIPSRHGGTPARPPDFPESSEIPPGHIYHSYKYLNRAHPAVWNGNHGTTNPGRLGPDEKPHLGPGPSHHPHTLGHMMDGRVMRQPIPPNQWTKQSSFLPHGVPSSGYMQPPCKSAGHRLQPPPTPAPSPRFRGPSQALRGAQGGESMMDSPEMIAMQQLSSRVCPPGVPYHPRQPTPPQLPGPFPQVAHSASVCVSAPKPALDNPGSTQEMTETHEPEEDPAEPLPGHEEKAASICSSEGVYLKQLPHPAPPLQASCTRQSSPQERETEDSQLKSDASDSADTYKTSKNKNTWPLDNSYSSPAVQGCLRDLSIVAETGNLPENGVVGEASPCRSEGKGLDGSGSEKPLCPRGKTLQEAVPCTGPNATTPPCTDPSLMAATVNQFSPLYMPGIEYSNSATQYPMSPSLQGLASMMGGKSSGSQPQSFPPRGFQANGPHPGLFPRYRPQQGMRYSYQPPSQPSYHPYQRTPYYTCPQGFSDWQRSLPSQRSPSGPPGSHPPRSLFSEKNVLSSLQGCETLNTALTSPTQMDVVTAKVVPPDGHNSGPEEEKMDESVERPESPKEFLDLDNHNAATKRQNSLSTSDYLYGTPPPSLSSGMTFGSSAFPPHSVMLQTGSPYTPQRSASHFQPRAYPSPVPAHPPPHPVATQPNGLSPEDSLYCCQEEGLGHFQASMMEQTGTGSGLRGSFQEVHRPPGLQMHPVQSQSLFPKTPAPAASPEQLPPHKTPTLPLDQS
UniProt Q91YE5: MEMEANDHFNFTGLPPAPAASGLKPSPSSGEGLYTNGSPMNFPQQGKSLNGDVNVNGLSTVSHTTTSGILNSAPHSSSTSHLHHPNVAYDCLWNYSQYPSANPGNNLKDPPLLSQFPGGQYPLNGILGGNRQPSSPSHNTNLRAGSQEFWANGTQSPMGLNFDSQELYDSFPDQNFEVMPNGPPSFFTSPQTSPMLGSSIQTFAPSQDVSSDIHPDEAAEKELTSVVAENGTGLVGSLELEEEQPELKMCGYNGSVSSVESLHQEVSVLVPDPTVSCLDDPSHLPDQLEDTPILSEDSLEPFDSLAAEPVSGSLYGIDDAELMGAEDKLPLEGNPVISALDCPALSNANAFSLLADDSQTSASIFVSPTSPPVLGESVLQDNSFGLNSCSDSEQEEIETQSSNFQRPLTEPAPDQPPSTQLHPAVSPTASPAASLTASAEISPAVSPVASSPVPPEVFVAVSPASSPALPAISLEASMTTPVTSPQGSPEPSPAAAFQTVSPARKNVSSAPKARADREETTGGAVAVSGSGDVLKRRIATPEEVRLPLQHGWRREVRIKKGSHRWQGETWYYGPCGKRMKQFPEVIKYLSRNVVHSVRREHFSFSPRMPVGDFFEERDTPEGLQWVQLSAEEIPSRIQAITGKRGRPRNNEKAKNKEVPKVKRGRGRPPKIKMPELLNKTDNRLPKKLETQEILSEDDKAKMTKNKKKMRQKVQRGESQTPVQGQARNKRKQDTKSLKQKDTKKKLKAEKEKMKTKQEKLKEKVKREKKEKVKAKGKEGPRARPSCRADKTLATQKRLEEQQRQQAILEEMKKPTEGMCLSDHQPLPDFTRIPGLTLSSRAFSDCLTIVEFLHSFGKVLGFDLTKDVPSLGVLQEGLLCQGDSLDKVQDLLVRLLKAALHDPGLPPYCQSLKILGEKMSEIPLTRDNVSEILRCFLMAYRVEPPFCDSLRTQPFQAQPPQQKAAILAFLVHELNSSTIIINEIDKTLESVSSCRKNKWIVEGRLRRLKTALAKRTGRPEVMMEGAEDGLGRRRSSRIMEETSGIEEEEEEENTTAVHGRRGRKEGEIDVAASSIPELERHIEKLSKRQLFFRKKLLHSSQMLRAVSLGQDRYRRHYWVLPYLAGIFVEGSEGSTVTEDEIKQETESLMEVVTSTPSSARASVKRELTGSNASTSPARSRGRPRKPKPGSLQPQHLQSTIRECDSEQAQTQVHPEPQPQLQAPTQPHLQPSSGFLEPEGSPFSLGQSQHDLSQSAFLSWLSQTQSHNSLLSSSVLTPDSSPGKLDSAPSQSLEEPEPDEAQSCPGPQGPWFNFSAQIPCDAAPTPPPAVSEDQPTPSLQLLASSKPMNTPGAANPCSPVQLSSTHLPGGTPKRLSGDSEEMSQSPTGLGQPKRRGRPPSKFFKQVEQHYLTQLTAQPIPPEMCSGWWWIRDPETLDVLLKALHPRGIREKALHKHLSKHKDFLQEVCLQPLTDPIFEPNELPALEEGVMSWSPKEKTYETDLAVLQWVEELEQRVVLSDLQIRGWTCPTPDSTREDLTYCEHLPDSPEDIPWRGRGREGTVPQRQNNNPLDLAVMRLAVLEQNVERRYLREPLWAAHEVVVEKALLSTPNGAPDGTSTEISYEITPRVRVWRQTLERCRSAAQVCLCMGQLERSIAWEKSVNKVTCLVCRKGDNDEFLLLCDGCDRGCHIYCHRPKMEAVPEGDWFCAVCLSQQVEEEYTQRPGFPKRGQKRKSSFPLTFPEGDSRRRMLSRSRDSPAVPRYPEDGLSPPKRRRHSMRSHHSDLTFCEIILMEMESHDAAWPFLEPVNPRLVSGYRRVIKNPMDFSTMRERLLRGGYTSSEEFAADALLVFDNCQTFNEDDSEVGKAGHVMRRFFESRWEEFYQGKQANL
UniProt O88379: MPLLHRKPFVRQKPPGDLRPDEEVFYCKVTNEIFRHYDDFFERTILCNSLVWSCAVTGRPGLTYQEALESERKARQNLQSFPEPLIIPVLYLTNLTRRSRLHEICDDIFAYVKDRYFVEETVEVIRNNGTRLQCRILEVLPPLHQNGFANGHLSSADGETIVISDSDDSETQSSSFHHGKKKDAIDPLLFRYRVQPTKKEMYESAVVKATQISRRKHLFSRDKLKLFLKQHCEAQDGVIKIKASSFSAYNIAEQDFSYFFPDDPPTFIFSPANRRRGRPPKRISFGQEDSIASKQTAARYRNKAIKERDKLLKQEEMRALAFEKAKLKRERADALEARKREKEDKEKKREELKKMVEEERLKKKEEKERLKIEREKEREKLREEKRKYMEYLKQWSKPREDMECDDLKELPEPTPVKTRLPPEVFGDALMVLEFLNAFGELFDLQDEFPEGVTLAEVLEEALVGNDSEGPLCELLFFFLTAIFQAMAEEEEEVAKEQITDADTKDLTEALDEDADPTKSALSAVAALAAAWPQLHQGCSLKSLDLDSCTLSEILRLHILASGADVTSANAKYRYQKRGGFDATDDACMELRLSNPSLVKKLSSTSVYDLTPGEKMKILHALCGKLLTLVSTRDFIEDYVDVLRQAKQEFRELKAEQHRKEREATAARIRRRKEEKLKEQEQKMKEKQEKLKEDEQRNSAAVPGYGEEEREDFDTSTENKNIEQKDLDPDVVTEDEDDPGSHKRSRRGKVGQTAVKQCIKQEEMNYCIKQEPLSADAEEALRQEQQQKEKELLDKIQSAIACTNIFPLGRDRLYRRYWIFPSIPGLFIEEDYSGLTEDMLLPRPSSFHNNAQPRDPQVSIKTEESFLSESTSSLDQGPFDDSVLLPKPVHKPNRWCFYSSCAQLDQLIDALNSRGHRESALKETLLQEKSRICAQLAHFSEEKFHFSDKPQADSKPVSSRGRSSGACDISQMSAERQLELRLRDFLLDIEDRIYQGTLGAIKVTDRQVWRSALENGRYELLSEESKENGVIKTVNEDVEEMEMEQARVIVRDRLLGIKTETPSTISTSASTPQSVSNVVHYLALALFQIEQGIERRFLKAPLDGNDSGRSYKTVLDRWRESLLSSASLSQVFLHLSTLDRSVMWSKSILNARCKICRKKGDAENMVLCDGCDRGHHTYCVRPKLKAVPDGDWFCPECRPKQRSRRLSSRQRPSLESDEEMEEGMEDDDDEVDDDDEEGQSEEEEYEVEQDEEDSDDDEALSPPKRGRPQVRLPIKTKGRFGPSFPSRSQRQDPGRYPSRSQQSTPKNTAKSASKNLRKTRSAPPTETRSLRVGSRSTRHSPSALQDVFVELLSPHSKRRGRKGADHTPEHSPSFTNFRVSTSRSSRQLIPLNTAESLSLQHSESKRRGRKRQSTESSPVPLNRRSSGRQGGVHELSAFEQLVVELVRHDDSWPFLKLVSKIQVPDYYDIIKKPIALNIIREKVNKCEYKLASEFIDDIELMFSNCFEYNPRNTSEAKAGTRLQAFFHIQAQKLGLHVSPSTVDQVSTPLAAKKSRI

Our source for the binding values is PMC11176080.

B1: WSTF (BAZ1B) (protein, UniProt Q9Z277 1-1479)
chain: MAPLLGRKPFPLVKPLPGEEPLFTIPHTQEAFRTREEYEARLERYSERIWTCKSTGSSQLTHKEAWEEEQEVAELLKEEFPNWYEKLVLEMVHHNTASLEKLVDSAWLEIMTKYAVGEECDFEVGKEKMLKVKIVKIHPLEKVDEEAVEKKSDGACDSPSSDKENSSQMAQDLQKKETVVKEDEGRRESINDRARRSPRKLPTSLKKGERKWAPPKFLPHKYDVKLQNEDKIISNVPADSLIRTERPPNKEILRYFIRHNALRAGTGENAPWVVEDELVKKYSLPSKFSDFLLDPYKYMTLNPSTKRRNTGSPDRKPSKKPKRDSSSLSSPLNPKLWCHVHLEKSLNGPPLKVKNSKNSKSPEEHLEGVMKIMSPNNNKLHSFHIPKKGPAAKKPGKHSDKPLKAKGRGKGILNGQKSTGNSKSPSKCVKTPKTKMKQMTLLDMAKGTQKMTRTPRSSGGVPRSSGKPHKHLPPAALHLIAYYKENKDKEDKKSALSCVISKTARLLSNEDRARLPEELRALVQKRYELLEHKKRWASMSEEQRKEYLKKKRQELKERLREKAKERREREMLERLEKQKRFEDQELGGRNLPAFRLVDTPEGLPNTLFGDVALVVEFLSCYSGLLLPDAQYPITAVSLMEALSADKGGFLYLNRVLVILLQTLLQDEIAEDYGELGMKLSEIPLTLHSVSELVRLCLRRCDVQEDSEGSETDDNKDSTPFEDNEVQDEFLEKLETSEFFELTSEEKLRILTALCHRILMTYSVQDHMETRQQVSAELWKERLAVLKEENDKKRAEKQKRKEMEARNKENGKEENVLGKVDRKKEIVKIEQQVEVEADDMISAVKSRRLLSMQAKRKREIQERETKVRLEREAEEERMRKHKAAAEKAFQEGIAKAKLVLRRTPIGTDRNHNRYWLFSNEVPGLFIEKGWVHNSIDYRFKHHRKDHSNLPDDDYCPRSKKANLGKNASVNAHHGPALEAVETTVPKQGQNLWFLCDSQKELDELLSCLHPQGIRESQLKERLEKRYQEITHSIYLARKPNLGLKSCDGNQELLNFLRSDLIEVATRLQKGGLGYMEGTSEFEARVISLEKLKDFGECVIALQASVIKKFLQGFMAPKQKKRKLQSEDSTKSEEVDEEKKMVEEAKVASALEKWKTAIREAQTFSRMHVLLGMLDACIKWDMSAENARCKVCRKKGEDDKLILCDECNKAFHLFCLRPALYEVPDGEWQCPACQPPTARRNSRGRNYTEESTSEGSEGDESGEEEEEEEEEEEEEEDYEVAGLRLRPRKTIRGKQSVIPAARPGRPPGKKSHPARRSRPKDDPEVDDLVLQTKRISRRQSLELQKCEDILHKLVKYRFSWPFREPVTRDEAEDYYDVIEHPMDFQTIQNKCSCGNYRSVQEFLTDMKQVFANAELYNCRGSHVLSCMEKTEQCLLALLQKHLPGHPYVRRKRRKFPDRLADDEGDSDSESVGQSRGRRQKK
B2: RSF1 (protein, UniProt E9PWW9 1-1441)
chain: MAAAAAAAAAAAAAAMAPPGCPGSCPNFAVVCSFLERYGPLLDLPELPFPELERVLQAPPPDIGNGEVPKELVELHLKLMRKIGKSVTADRWEKYLIKICQEFNSTWAWEMEKKGYLEMSVECKLALLKYLCECQFDDNLKFKNIINEEDADTMRLQPIGRDKDGLMYWYQLDQDHNVRMYIEEQDDQDGSSWKCIVRNRNELAETLALLKAQIDPVLLKNSSQQEDSSRESPTLEDEETKKDEETPKQEASKENEKTGADERSVDSGKCSAASALEEPAVKTEKADEKELAKLPVIVKLEKPLPETEEKKIIREESDSFKENVKPIKVEAKECRADPKDLKGSLERLGSQEPERADFGSNIKSQDIIEKSTEETEKLKNDQQAKIPLKKREIKLSDDFDSPVKGPLCKSATPTKEVLKDDIKQEEETCKRVSTISALSHEGKQLVNGEINDDKVIPNFKTEQMEIQLCDTKEDSASIPAKDGNACMEGNGTECLNSVITSTKTSELEKEAPLGKGIDSSVPDIESLSQKARLEEPGLLNMDMPLEPSEKATDLSLKPTLSATEPCSTKVEEKAPRSKSENHTPGIECLERVEKAKKTSIDKDIQKLSPIPEEVVRGALESEKSGPCEVAETPLPLSMAGAKEKQTSEKKDVDCSRGSSESQSLENASPEILKEDSESSREEVAKLDNAQTSGMEDTSETKGSVQKNKFKYKLVSERNSTASENTEITSERKKEGIKLTIRISSRKKKPDCPPQTVDSESKEEKAGKEEEKASVGRTLRRSPRISRPTAKVAEIRVQKADKRRADGEDGVEGEPASLQTADKKDHLKKAEKDTNSKASKVKPKGKVRWTGSRTRGRWKYSSNDESEGSESDKSSAALEEEEGKEGEEAVLPDDDEPCKKCGLPNHPELILLCDSCDSGYHTACLRPPLMIIPDGEWFCPPCQHKLLCEKLEEQLQDLDVALKKKERAERRKERLVYVGISIENIIPPQEPEFSEEQEEKKKDAKKSKANALERRSTRTRKCISYRFDEFDEAIDEAIEDDIKEADGGGVGRGKDISTITGHRGKDISTILDEERKENKRPQRAAAARRKKRRRLNDLDSDSNLDEEESEDEFKISDGSQDEFVVSDENPDESEEEPPSNEDSDTDFCSRRLRRHPSRPMRQSRRLRRKTPKKKYSDDDEEEEESEENSRDSESDFSDDFSDDFVETRRRRSRRNQKRQINYKEDSESDGSQKSLRRGKEIRRVHKRRLSSSESEESFMSKNSEDDELTKESKRSVRKRGRSTDDYSEADEDDEEEGKPSRKRLHRIETDEESCDNAHGDADQPARDSQPSALPSEQESSKKPYRIESDEEEDFENKVGSPLDYSLVDLPSTNGQSPGKAIENLMGKATEKSQTPKDNGTASASLAPNGTSGGQEVGAPEEDEDELLRVTDLVDYVCNSEQL

The target in the assay is SNF2H (SMARCA5) (mouse (endogenous in mESCs)) (UniProt Q91ZW3). Nature of the assay: affinity purification with mass spectrometry; co-IP under native conditions with anti-SNF2H antibody on protein G Dynabeads from WT mESC lysate (B150AG buffer: 10 mM Tris-HCl pH 7.5, 2 mM MgCl2, 150 mM NaCl, 0.5% Triton X-100, 50 mM L-arginine, 50 mM L-glutamine), 4 °C overnight; Snf2hΔ cells as mock IP; label-free quantification, three replicates.
For CECR2 (from UniProt E9Q2Z1 1-1453), the binding result was “binds”. Turning to “TIP5 (BAZ2A) (from UniProt Q91YE5 1-1889)”, the binding result is given as “binds”. The same measure for “ACF1 (BAZ1A) (from UniProt O88379 1-1555)”: “binds”; for B1: “binds”. B2: the binding entry is “binds”.
